Laboratory results from PubChem BioAssay AID540276 (National Center for Advancing Translational Sciences (NCATS), 2011).
The campaign covered roughly 300,000 compounds. About 5,400 (1.8%) were called active. Inconclusive results, whose numbers are uncertain, are shown with a selection of clear calls. Calls come from the whole dose curve; tested in HEK293 cells. Where the call is inconclusive, the potency comes from a doubtful curve fit.
% is set by controls: 0 for no effect and ±100 for the full control effect; potency is the fitted concentration of half-maximal effect.

Test: qHTS for inhibitors of binding or entry into cells for Marburg Virus
Details: Marburg virus pseudotyped entry inhibition, cell reporter; activity change, negative = inhibition: at 37.8 µM (top of the series) unless noted
With `CC1(C)Cc2c(c(N3CCOCC3)nc3sc4c(NCc5ccco5)nnnc4c23)CS1` the Potency was “inactive”. With `Cc1cccc(N2CCN(C(=O)CS(=O)(=O)Cc3nc(-c4ccccc4C)oc3C)CC2C)c1` (stereo not drawn) the Potency was inconclusive: 35.5 µM [inhibitor, single point]. For `COc1cc(NC(=O)CCCOc2cc(=O)n(C)c3ccccc23)cc(OC)c1OC`, the “activity change, negative = inhibition” value was inactive: 11.8% [at 46.1 µM]. For `Cc1[nH]c2ccccc2c1C(=O)/C=C/c1ccccc1`, the Potency was inconclusive: 35.5 µM [inhibitor, single point]. For `O=C(CCCCCn1c(=O)[nH]c2ccccc2c1=O)N1CCN(Cc2ccc3c(c2)OCO3)CC1`, the Potency was inconclusive: 29.1 µM [inhibitor, single point]. With `Fc1cc(F)c2nc(N3CCCCC3)sc2c1` the “activity change, negative = inhibition” value was inactive: 16.3% [at 46.1 µM]. For `O=C(NCCC1CCCCN1S(=O)(=O)c1cccs1)C(=O)NCc1ccccc1` (stereo not drawn), the Potency was inconclusive: 35.5 µM [inhibitor, single point]. With `O=C(Nc1ccccc1)C1CCN(C(=O)c2ccc(Br)cc2)CC1` the “activity change, negative = inhibition” value was inactive: -6.33%. For `Cc1c(OC(C)C(=O)NCCCn2ccnc2)ccc2c3c(c(=O)oc12)CCC3` (stereo not drawn), the Potency was inconclusive: 5.62 µM [inhibitor, single point]. In the case of `O=C(/C=C/c1ccc(S(=O)(=O)NCc2ccco2)cc1)N1CCN(c2ccccc2)CC1`, the Potency is reported as inconclusive: 35.5 µM [inhibitor, single point]. With `COc1ccc(Nc2sc(C(=O)c3ccc(Cl)cc3)c(N)c2C(=O)Nc2ccccc2OC)cc1` the Potency was inconclusive: 29.1 µM [inhibitor, single point]. In the case of `CCOC(=O)N1CCN(C(=O)CSc2nc3c([nH]c4ccccc43)c(=O)n2CC)CC1`, the Potency is reported as inconclusive: 0.794 µM [activator, single point]. In the case of `C[n+]1c2ccccc2nc2ccc(NCCO)cc21`, the Potency is reported as inconclusive: 2 µM [inhibitor, partial curve, poor fit]. In the case of `CN(C)C(=O)C1C2NC(=S)N(c3cccc(Cl)c3)C1(C)Oc1ccc(Cl)cc12` (stereo not drawn), the Potency is reported as inconclusive: 10 µM [inhibitor, partial curve, poor fit]. With `CC1CCN(c2nc3ccc(C(=O)NCc4ccccc4)cc3s2)CC1` the “activity change, negative = inhibition” value was inactive: 23.8% [at 46.1 µM]. With `COCCCN(C(=S)Nc1cc(Cl)cc(Cl)c1)C(C)c1ccncc1` (stereo not drawn) the Potency was inconclusive: 35.5 µM [inhibitor, single point]. With `Cc1nc(N2CCC(C)CC2)c2oc3ccccc3c2n1` the Potency was inconclusive: 35.5 µM [inhibitor, single point]. In the case of `CCOc1ccc(NC(=O)CCNC(=O)c2ccc(Br)cc2)cc1`, the Potency is reported as inconclusive: 3.55 µM [activator, single point]. For `O=[N+]([O-])c1ccc(NC(=S)NCCc2ccc(Cl)cc2)cc1`, the Potency was inconclusive: 17.8 µM [inhibitor, partial curve]. With `CCN(CC)S(=O)(=O)c1cc(Br)c(C)cc1OC` the Potency was inconclusive: 2.24 µM [activator, partial curve, poor fit]. For `CC(=O)c1cccc(NC(=O)Nc2csc3c2CCCC3)c1`, the Potency was inconclusive: 11.2 µM [activator, single point]. With `CC(=O)N(Cc1cc(=O)[nH]c2ccccc12)c1ccccc1C` the Potency was inconclusive: 0.891 µM [activator, full curve, poor fit]. For `Cc1cc(NC(=O)CCNS(=O)(=O)c2cccc3nsnc23)ccc1Br`, the “activity change, negative = inhibition” value was inactive: 17.1% [at 46.1 µM]. For `CCCc1sc(N2CCCC(C(N)=O)C2)nc1-c1ccccc1` (stereo not drawn), the Potency was inconclusive: 25.1 µM [inhibitor, single point]. For `CC(=O)Nc1ccc(C(=O)Nc2ccc(S(=O)(=O)N3CCCCC3)cc2)cc1`, the “activity change, negative = inhibition” value was inactive: 3.49%. With `CCC12CN(C(=O)c3ccco3)CC(CC)(CN(C(=O)c3ccco3)C1)C2=O` the Potency was inconclusive: 6.31 µM [activator, partial curve, poor fit]. For `O=C(CSc1nc2ccccc2[nH]1)c1ccccc1F`, the “activity change, negative = inhibition” value was inactive: 1.02% [at 46.1 µM]. With `COc1ccc(Cl)cc1C(=O)Nn1cnc2ccccc2c1=O` the “activity change, negative = inhibition” value was inactive: -4.07%. With `CN(CC(=O)N1CCN(Cc2ccccc2)CC1)S(=O)(=O)c1ccc(Br)cc1` the Potency was inconclusive: 35.5 µM [inhibitor, partial curve, poor fit]. For `COc1ccc(OC)c2nc(-c3ccc4c(c3)OCO4)ccc12`, the Potency was inconclusive: 11.2 µM [inhibitor, single point]. For `O=C(c1cc2cc(Cl)ccc2[nH]1)N1CCN(c2ccccn2)CC1`, the “activity change, negative = inhibition” value was inactive: 0.69%. For `COc1cc(C(=O)Nc2ccc(NC(=O)c3ccccc3)nc2)cc(OC)c1OC`, the Potency was inconclusive: 35.5 µM [inhibitor, single point]. For `Cc1ccc(CSc2nnc(-c3ccco3)n2N)cc1`, the Potency was inconclusive: 0.13 µM [inhibitor, partial curve, poor fit]. In the case of `CNC(C(=O)c1ccccc1)C(OC(C)C)c1ccc(Cl)cc1` (stereo not drawn), the Potency is reported as inconclusive: 29.1 µM [inhibitor, single point]. With `COC(=O)[C@@H](NC(=O)N1CCN(c2cccc(C(F)(F)F)c2)CC1)C(C)C` the Potency was inconclusive: 35.5 µM [inhibitor, single point]. For `CCc1ccc(N2CC(C(=O)Nc3nccs3)CC2=O)cc1` (stereo not drawn), the Potency was inconclusive: 2.51 µM [inhibitor, partial curve, poor fit]. With `c1ccc(-c2csc3ncnc(NCCCN4CCOCC4)c23)cc1` the Potency was inconclusive: 15.8 µM [inhibitor, partial curve, poor fit]. For `NC(=O)c1ccc(-c2ncc(-c3ccccc3)o2)cc1`, the Potency was inconclusive: 7.3 µM [inhibitor, partial curve, poor fit]. In the case of `Cc1nnc(Sc2cc(C(=O)NCCCN(C)Cc3ccccc3)c3ccccc3n2)s1`, the Potency is reported as inconclusive: 22.4 µM [inhibitor, single point]. In the case of `Cc1ccc(S(=O)(=O)N2CCN(Cc3cc(C(C)C)ccc3O)CC2)cc1`, the Potency is reported as inconclusive: 20.6 µM [inhibitor, single point]. In the case of `C(=N\Nc1nc(-c2ccccc2)cs1)/c1ccncc1`, the “activity change, negative = inhibition” value is reported as inactive: -19.2% [at 46.1 µM]. With `COCc1c(C(=O)N(C)Cc2ccccc2N2CCCC2)oc2ccccc12` the Potency was inconclusive: 2.24 µM [inhibitor, partial curve, poor fit]. In the case of `O=C(O)C[C@H](C(=O)OC[C@H]1CCCO1)N1CCOCC1`, the “activity change, negative = inhibition” value is reported as inactive: 20%.
